# Laboratory results: PubChem BioAssay AID1224830 (NIAID, 2016)
# Aim: 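Regulators of TLR4 signalling towards TNF-alpha in macrophage-like cells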 (primary screen)
# Cells: human THP-1 monocytic leukaemia cells, TNF dual-luciferase reporter clone, PMA-differentiated to macrophage-like cells
# Reagent: siRNA pool against human genes, 50 nM
# Timing: LPS for 4 h, given about 3 days after siRNA transfection
# Challenge: bacterial LPS (TLR4 ligand), 10 ng/ml
# Measured: 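Ratio of firefly to renilla light, scaled to the plate median and expressed as a robust z-score per replicate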
# Scale: TNF reporter robust z-score: higher = stronger TNF reporter response to LPS
# Hit rule: 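Each well counts as active if its z-score is over 2.8 or under -1.5; controls are left without a call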
# In all, the deposit lists about 18,000 reagents; this is a part drawn at random. Of all reagents, about 2,900 (16%) are marked active. 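Calls are made per well; low scores hint the gene aids the LPS response, high scores that it dampens it.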 Repeated entries: four replicate wells of each siRNA pool.
gene knocked down,TNF reporter robust z-score,Outcome
SARAF (store-operated calcium entry associated regulatory factor),0.34,inactive
SARAF (store-operated calcium entry associated regulatory factor),1.51,inactive
SARAF (store-operated calcium entry associated regulatory factor),2.5,inactive
SARAF (store-operated calcium entry associated regulatory factor),-1.06,inactive
NR2F6 (nuclear receptor subfamily 2 group F member 6),-1.07,inactive
NR2F6 (nuclear receptor subfamily 2 group F member 6),-0.23,inactive
NR2F6 (nuclear receptor subfamily 2 group F member 6),0.18,inactive
NR2F6 (nuclear receptor subfamily 2 group F member 6),-0.55,inactive
PPIAL4A (peptidylprolyl isomerase A like 4A),-0.76,inactive
PPIAL4A (peptidylprolyl isomerase A like 4A),0.2,inactive
PPIAL4A (peptidylprolyl isomerase A like 4A),-0.39,inactive
PPIAL4A (peptidylprolyl isomerase A like 4A),-0.47,inactive
SERF2 (small EDRK-rich factor 2),-0.45,inactive
SERF2 (small EDRK-rich factor 2),-0.74,inactive
SERF2 (small EDRK-rich factor 2),-0.86,inactive
SERF2 (small EDRK-rich factor 2),-0.57,inactive
PAPPA2 (pappalysin 2),-0.91,inactive
PAPPA2 (pappalysin 2),-0.64,inactive
PAPPA2 (pappalysin 2),-0.48,inactive
PAPPA2 (pappalysin 2),0.14,inactive
CATIP (ciliogenesis associated TTC17 interacting protein),-0.54,inactive
CATIP (ciliogenesis associated TTC17 interacting protein),0.23,inactive
CATIP (ciliogenesis associated TTC17 interacting protein),-0.66,inactive
LRRC27 (leucine rich repeat containing 27),-0.83,inactive
LRRC27 (leucine rich repeat containing 27),-0.34,inactive
LRRC27 (leucine rich repeat containing 27),-0.37,inactive
LRRC27 (leucine rich repeat containing 27),-0.69,inactive
ZNF691 (zinc finger protein 691),0.14,inactive
ZNF691 (zinc finger protein 691),0.22,inactive
ZNF691 (zinc finger protein 691),0.2,inactive
ZNF691 (zinc finger protein 691),1.11,inactive
"METRNL (meteorin like, glial cell differentiation regulator)",-1.12,inactive
"METRNL (meteorin like, glial cell differentiation regulator)",-1.26,inactive
"METRNL (meteorin like, glial cell differentiation regulator)",-0.98,inactive
"METRNL (meteorin like, glial cell differentiation regulator)",-0.65,inactive
CCDC32 (coiled-coil domain containing 32),0.67,inactive
CCDC32 (coiled-coil domain containing 32),0.68,inactive
CCDC32 (coiled-coil domain containing 32),-0.84,inactive
CCDC32 (coiled-coil domain containing 32),-0.71,inactive
DYNC1LI2 (dynein cytoplasmic 1 light intermediate chain 2),-0.47,inactive
DYNC1LI2 (dynein cytoplasmic 1 light intermediate chain 2),0.37,inactive
DYNC1LI2 (dynein cytoplasmic 1 light intermediate chain 2),-0.39,inactive
DYNC1LI2 (dynein cytoplasmic 1 light intermediate chain 2),0.12,inactive
PRKAA2 (protein kinase AMP-activated catalytic subunit alpha 2),0.79,inactive
PRKAA2 (protein kinase AMP-activated catalytic subunit alpha 2),0.63,inactive
PRKAA2 (protein kinase AMP-activated catalytic subunit alpha 2),0.01,inactive
PRKAA2 (protein kinase AMP-activated catalytic subunit alpha 2),1.36,inactive
SLC25A43,0.32,inactive
SLC25A43,1.18,inactive
SLC25A43,0.88,inactive
SLC25A43,-0.6,inactive
OR2B11 (olfactory receptor family 2 subfamily B member 11),0.29,inactive
OR2B11 (olfactory receptor family 2 subfamily B member 11),0.74,inactive
OR2B11 (olfactory receptor family 2 subfamily B member 11),-0.08,inactive
OR2B11 (olfactory receptor family 2 subfamily B member 11),0.69,inactive
ZBTB7A (zinc finger and BTB domain containing 7A),0.7,inactive
ZBTB7A (zinc finger and BTB domain containing 7A),0.9,inactive
ZBTB7A (zinc finger and BTB domain containing 7A),1.35,inactive
ZBTB7A (zinc finger and BTB domain containing 7A),1.14,inactive
PRKG2 (protein kinase cGMP-dependent 2),-1.53,active
PRKG2 (protein kinase cGMP-dependent 2),-0.19,inactive
PRKG2 (protein kinase cGMP-dependent 2),-0.34,inactive
PRKG2 (protein kinase cGMP-dependent 2),0.43,inactive
TIGD3 (tigger transposable element derived 3),1.31,inactive
TIGD3 (tigger transposable element derived 3),2.87,active
TIGD3 (tigger transposable element derived 3),4.17,active
TIGD3 (tigger transposable element derived 3),0.02,inactive
RPL18P4 (ribosomal protein L18 pseudogene 4),1.69,inactive
RPL18P4 (ribosomal protein L18 pseudogene 4),5.5,active
RPL18P4 (ribosomal protein L18 pseudogene 4),5.04,active
RPL18P4 (ribosomal protein L18 pseudogene 4),0.21,inactive
ARL13A (ARF like GTPase 13A),,inactive
PDCD6 (programmed cell death 6),1.16,inactive
PDCD6 (programmed cell death 6),2.64,inactive
PDCD6 (programmed cell death 6),3.13,active
PDCD6 (programmed cell death 6),4.05,active

Sorted by “TNF reporter robust z-score” (high to low): some entries from above.
gene knocked down,TNF reporter robust z-score,Outcome
SARAF (store-operated calcium entry associated regulatory factor),2.5,inactive
SARAF (store-operated calcium entry associated regulatory factor),1.51,inactive
NR2F6 (nuclear receptor subfamily 2 group F member 6),0.18,inactive
NR2F6 (nuclear receptor subfamily 2 group F member 6),-0.23,inactive
NR2F6 (nuclear receptor subfamily 2 group F member 6),-0.55,inactive
PPIAL4A (peptidylprolyl isomerase A like 4A),-0.76,inactive
SARAF (store-operated calcium entry associated regulatory factor),-1.06,inactive
NR2F6 (nuclear receptor subfamily 2 group F member 6),-1.07,inactive
